Measurements published in article PMC7819943, “Rice protein-binding microarrays: a tool to detect cis-acting elements near promoter regions in rice”.
This is one part of the list.

These sequences were tested against T1, OsSMF1 (Oryza sativa, UniProt Q6ZLB0 1-436) (assay: protein-binding microarray (RPBM); PBS, 2% BSA, 51.3 ng/ul salmon testes DNA, 50 uM zinc acetate, 200 nM TF, 25 C, 1 h; high values mean tight binding). Details: protein: recombinant; tags: N-terminal polyhistidine and DsRed monomer fusion (pET32a); chain copies: 2; label: CyDye5-dUTP incorporated in the synthesized complementary strand; 3' TTTTT single-stranded linker to array surface; dsDNA, one strand shown.
T1 sequence: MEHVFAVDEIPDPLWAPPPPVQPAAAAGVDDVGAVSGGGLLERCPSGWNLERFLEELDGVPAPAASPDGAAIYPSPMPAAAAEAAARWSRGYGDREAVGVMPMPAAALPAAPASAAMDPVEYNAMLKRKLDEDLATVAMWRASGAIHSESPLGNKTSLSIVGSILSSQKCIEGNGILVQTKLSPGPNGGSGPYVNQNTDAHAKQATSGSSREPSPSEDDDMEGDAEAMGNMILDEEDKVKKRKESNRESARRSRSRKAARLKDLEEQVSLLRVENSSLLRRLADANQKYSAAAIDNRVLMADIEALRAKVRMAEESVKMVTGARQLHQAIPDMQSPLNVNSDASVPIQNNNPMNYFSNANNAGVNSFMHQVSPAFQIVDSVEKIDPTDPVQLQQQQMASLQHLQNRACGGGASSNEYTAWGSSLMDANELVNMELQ
Outline: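 In PBS with 2% BSA, salmon testes DNA and 50 µM zinc acetate, 200 nM protein was incubated on a custom Agilent array at 25 °C for 1 h and then washed off. The array had been made double-stranded by primer extension with Cy5-dUTP and blocked with 2% BSA. The proteins were transcription factors fused N-terminally to polyhistidine and DsRed, expressed in E. coli BL21-CodonPlus and purified on Ni–NTA. The binding signal is per-feature fluorescence intensity (arbitrary units) from an Axon 4000B scanner.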
In the case of “GCATTGTGCGTGGTCACCTTCGCAGCTGGAGAGGGAAAAGCGGAGTCACCTAGTGCAG”, the binding signal is reported as 3610 fluorescence intensity (a.u.). With “CGGAATGTCTCCGCGGAAGATGCCCAAGGAATCGCCTGGCCGGAGTCACCTAGTGCAG” the binding signal was 39500 fluorescence intensity (a.u.). For “TGAGGCTGACGCGTGGGCCCTCCCTCGTGTGCGTGTTCTGCGGAGTCACCTAGTGCAG”, the binding signal was 5800 fluorescence intensity (a.u.). In the case of “TGTACCCAACGCCACGGCTACCCCAACGATGTTATCCCCTCGGAGTCACCTAGTGCAG”, the binding signal is reported as 3670 fluorescence intensity (a.u.). For “GCCGCGACACCGCACCCCGCTCGCACTCGCACGTACGCGACGGAGTCACCTAGTGCAG”, the binding signal was 3220 fluorescence intensity (a.u.). In the case of “GGCGTCGTCATGCGGAACGTCAGCAACCCGATCATCGTCGCGGAGTCACCTAGTGCAG”, the binding signal is reported as 6800 fluorescence intensity (a.u.). For “CCTCACCTCACCTTACCTGAGAACACCACCCATTGCCGGACGGAGTCACCTAGTGCAG”, the binding signal was 4580 fluorescence intensity (a.u.). For “CGTTCGCAGCGGTGGCTGGCGTGCTGTGGTGGAGCATGTTCGGAGTCACCTAGTGCAG”, the binding signal was 3380 fluorescence intensity (a.u.). With “CTCCAGCATCGCCACCGGGTCCCCGTACGGGTTCTTCGGGCGGAGTCACCTAGTGCAG” the binding signal was 3620 fluorescence intensity (a.u.). With “CTTTCACGCCGGCGAGCAATCCGACGCGGCAAAATCGAATCGGAGTCACCTAGTGCAG” the binding signal was 4850 fluorescence intensity (a.u.). With “TCACTGTAGGTCTCTTGTGTTGACATCGAGTTCAAATTACCGGAGTCACCTAGTGCAG” the binding signal was 7090 fluorescence intensity (a.u.). “GGAACTGGTCGTGGATTAGCCTTCTCCAACATAGGGGTGGCGGAGTCACCTAGTGCAG” was tested, and the binding signal was 33000 fluorescence intensity (a.u.). In the case of “GCCGATCAGCAGGTGCTGACTCCGCGCGGGGACGAATCCGCGGAGTCACCTAGTGCAG”, the binding signal is reported as 7890 fluorescence intensity (a.u.). With “ACGATATGACGGAAAAGTTGGAAGTTTGTGTGTAGAAAAGCGGAGTCACCTAGTGCAG” the binding signal was 3140 fluorescence intensity (a.u.). With “ATTATACATTTGATCAATTATTATACACTGGTTCTCAAAACGGAGTCACCTAGTGCAG” the binding signal was 20300 fluorescence intensity (a.u.). In the case of “ATCGTCATAGTCTTCGTCAGACTTCTATCTCGATCGCTTTCGGAGTCACCTAGTGCAG”, the binding signal is reported as 3680 fluorescence intensity (a.u.). With “TAAACAAGTTGCAATGGGCAAATGTCATACTGTCATCAACCGGAGTCACCTAGTGCAG” the binding signal was 3350 fluorescence intensity (a.u.). With “TAACTTTTCCGTTACATCAAATGTTTGGACACATGCATAGCGGAGTCACCTAGTGCAG” the binding signal was 22000 fluorescence intensity (a.u.). With “CTTTGAAATTGCGTAATATCAAAATTGCATCTATTTTATCCGGAGTCACCTAGTGCAG” the binding signal was 14700 fluorescence intensity (a.u.). With “ATTCACATCCCGGAAGCAGCTAACAAATTTCAGGGTAAAGCGGAGTCACCTAGTGCAG” the binding signal was 3370 fluorescence intensity (a.u.). For “ACAGGTCAAATATTCCGAAAGTAAAATGGCCAGCAAAGCACGGAGTCACCTAGTGCAG”, the binding signal was 3190 fluorescence intensity (a.u.). For “CCCAACCAGCGACCGCGCCATCCTTGCGTCTTGCGTATCGCGGAGTCACCTAGTGCAG”, the binding signal was 3180 fluorescence intensity (a.u.). “GAATTTAGGGAGTAGCCTTGGTCATGGTCAAGTTCAGAAACGGAGTCACCTAGTGCAG” was tested, and the binding signal was 3820 fluorescence intensity (a.u.). “ACGTAATGACATGTAAAGCGTTATGTAGATGCCACGTGGACGGAGTCACCTAGTGCAG” was tested, and the binding signal was 29400 fluorescence intensity (a.u.). For “TGTGAGGTGGGGTCGGGGTGGAAGTGGGTGAGGAGGGGTGCGGAGTCACCTAGTGCAG”, the binding signal was 22700 fluorescence intensity (a.u.). In the case of “TGGTATATATGCGTGTACACTTACGCCTGACCTTCTGACTCGGAGTCACCTAGTGCAG”, the binding signal is reported as 5640 fluorescence intensity (a.u.). “CAGCCGCTGACTGTTAGTGGATTCTAGTAGTAGTTGTTTACGGAGTCACCTAGTGCAG” was tested, and the binding signal was 4210 fluorescence intensity (a.u.). In the case of “TACTACTTCCGATCAGAGCCATACCAATGCCACGACACGACGGAGTCACCTAGTGCAG”, the binding signal is reported as 4090 fluorescence intensity (a.u.). In the case of “GGAGATAGAGAGAAGAGGTAGTGATGATGACGTGTGGGTCCGGAGTCACCTAGTGCAG”, the binding signal is reported as 9120 fluorescence intensity (a.u.). For “ATATATATAAGCTTTACCTTGCATTCCAAGCTTCGATCGACGGAGTCACCTAGTGCAG”, the binding signal was 3160 fluorescence intensity (a.u.). In the case of “CGAGAGCCCAGAAGCAGCAGCGATGTGTTGGATAAATCTGCGGAGTCACCTAGTGCAG”, the binding signal is reported as 39000 fluorescence intensity (a.u.). With “TCGGTGCAAATGACATTAGCGCATCTCCATTCACATCAGTCGGAGTCACCTAGTGCAG” the binding signal was 3220 fluorescence intensity (a.u.). “CGGCGGCGACAGGCGCGCCTGCGAGCTCGCCGTCGTGGCGCGGAGTCACCTAGTGCAG” was tested, and the binding signal was 3980 fluorescence intensity (a.u.). For “CGAGAGCGAGAGCCGTCTTGCCGGTGGCGGGCGGGCCGGCCGGAGTCACCTAGTGCAG”, the binding signal was 32300 fluorescence intensity (a.u.). In the case of “TCTCCCAGGCCACCATCGGCGTCCACATCCCGCCGTCCGCCGGAGTCACCTAGTGCAG”, the binding signal is reported as 3510 fluorescence intensity (a.u.). “ATGCGTGCGCTCAGCCCATTCTGCTTGTATTTTCAGTACACGGAGTCACCTAGTGCAG” was tested, and the binding signal was 3650 fluorescence intensity (a.u.). With “CGTCAGCTTGTGCGCCGTCACCACGTAGTTCCACGGCCTCCGGAGTCACCTAGTGCAG” the binding signal was 3490 fluorescence intensity (a.u.). For “ATATATGTAGGAGAATGACAGAGTACTGGAGTCATCTACTCGGAGTCACCTAGTGCAG”, the binding signal was 3510 fluorescence intensity (a.u.). “ATACGATAAACCATGTGGATCTAGAATGTTGTAAAATTAACGGAGTCACCTAGTGCAG” was tested, and the binding signal was 36400 fluorescence intensity (a.u.). “TGAATGTCCCACCTAAGAAGACGCCAGACAGCTCTGAACACGGAGTCACCTAGTGCAG” was tested, and the binding signal was 17100 fluorescence intensity (a.u.). “CAGAACGTCTGTGTATGTGTACATGTACATGTGTGCACTCCGGAGTCACCTAGTGCAG” was tested, and the binding signal was 3550 fluorescence intensity (a.u.). With “ACGGAGAATTGGCGATCTCCATAACTCCATGTCACCTCTACGGAGTCACCTAGTGCAG” the binding signal was 5010 fluorescence intensity (a.u.).
